Measured values: publication doi:10.1101/2025.04.25.650548

By UniProt entry, the sequences of proteins in these tests, tags left out.
UniProt Q9UKA4: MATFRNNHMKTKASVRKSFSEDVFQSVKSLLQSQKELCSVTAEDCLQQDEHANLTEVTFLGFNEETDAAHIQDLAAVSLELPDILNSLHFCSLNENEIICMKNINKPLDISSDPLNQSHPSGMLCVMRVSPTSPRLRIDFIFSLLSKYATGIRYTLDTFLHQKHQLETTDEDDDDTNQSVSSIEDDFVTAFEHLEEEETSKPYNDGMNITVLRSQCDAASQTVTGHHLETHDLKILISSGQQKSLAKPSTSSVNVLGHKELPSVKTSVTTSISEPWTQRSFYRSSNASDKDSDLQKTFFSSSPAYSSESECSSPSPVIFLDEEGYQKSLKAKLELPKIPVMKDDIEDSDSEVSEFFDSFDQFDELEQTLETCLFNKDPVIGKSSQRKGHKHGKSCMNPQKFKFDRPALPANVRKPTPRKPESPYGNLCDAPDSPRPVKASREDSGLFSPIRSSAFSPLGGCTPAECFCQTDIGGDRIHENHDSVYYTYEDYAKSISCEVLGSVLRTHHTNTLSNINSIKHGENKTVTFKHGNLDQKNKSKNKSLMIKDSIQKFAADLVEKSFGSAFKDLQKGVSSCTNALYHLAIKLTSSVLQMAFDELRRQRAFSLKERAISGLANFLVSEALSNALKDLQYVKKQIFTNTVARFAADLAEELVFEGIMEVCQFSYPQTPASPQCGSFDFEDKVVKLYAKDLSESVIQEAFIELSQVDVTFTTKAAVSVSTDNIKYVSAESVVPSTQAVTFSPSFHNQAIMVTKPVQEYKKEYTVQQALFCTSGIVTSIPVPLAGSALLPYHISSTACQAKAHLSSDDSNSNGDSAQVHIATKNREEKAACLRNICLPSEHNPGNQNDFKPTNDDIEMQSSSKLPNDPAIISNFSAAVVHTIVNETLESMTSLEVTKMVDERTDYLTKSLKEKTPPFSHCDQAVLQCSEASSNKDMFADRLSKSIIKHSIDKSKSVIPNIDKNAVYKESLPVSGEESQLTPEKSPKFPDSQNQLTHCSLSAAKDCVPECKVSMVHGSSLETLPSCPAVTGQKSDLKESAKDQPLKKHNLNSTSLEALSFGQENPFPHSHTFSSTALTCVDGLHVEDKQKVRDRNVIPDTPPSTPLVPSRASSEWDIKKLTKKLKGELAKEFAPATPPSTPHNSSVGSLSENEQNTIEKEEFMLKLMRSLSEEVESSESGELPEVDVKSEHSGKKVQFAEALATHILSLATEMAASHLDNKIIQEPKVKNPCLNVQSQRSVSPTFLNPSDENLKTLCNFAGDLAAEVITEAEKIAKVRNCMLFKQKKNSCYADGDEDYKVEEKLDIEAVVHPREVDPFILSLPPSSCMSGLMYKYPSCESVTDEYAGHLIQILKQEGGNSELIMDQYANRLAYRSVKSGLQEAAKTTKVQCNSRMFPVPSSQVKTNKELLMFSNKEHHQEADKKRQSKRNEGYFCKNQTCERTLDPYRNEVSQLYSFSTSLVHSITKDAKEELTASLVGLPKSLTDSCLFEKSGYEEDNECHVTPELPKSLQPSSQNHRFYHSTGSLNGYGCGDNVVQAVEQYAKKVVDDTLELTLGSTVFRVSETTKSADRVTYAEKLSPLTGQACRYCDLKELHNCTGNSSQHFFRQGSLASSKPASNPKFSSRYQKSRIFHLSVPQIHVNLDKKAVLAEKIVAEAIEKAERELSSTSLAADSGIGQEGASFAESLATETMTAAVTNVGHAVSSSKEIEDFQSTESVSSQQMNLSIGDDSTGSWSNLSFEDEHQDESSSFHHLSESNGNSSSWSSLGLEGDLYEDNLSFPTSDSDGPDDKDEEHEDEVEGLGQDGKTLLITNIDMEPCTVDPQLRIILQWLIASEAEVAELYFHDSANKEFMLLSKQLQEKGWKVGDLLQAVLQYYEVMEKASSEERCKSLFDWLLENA
UniProt P13861: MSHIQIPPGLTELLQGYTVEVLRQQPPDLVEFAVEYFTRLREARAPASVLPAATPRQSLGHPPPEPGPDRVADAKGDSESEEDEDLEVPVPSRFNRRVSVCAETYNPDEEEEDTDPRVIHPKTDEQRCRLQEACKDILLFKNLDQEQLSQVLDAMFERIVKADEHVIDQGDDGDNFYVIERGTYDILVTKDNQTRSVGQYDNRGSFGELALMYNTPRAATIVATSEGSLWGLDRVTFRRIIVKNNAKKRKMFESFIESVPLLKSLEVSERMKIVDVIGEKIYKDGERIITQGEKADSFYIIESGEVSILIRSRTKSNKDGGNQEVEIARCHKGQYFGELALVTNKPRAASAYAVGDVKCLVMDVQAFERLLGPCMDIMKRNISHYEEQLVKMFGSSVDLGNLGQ
UniProt O95292: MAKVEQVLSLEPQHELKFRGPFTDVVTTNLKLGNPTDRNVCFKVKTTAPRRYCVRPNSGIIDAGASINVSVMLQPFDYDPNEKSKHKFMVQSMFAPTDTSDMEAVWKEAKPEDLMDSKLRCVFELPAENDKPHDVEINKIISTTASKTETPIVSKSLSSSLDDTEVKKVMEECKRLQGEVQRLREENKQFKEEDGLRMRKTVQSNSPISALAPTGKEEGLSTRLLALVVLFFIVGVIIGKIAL
UniProt P46940: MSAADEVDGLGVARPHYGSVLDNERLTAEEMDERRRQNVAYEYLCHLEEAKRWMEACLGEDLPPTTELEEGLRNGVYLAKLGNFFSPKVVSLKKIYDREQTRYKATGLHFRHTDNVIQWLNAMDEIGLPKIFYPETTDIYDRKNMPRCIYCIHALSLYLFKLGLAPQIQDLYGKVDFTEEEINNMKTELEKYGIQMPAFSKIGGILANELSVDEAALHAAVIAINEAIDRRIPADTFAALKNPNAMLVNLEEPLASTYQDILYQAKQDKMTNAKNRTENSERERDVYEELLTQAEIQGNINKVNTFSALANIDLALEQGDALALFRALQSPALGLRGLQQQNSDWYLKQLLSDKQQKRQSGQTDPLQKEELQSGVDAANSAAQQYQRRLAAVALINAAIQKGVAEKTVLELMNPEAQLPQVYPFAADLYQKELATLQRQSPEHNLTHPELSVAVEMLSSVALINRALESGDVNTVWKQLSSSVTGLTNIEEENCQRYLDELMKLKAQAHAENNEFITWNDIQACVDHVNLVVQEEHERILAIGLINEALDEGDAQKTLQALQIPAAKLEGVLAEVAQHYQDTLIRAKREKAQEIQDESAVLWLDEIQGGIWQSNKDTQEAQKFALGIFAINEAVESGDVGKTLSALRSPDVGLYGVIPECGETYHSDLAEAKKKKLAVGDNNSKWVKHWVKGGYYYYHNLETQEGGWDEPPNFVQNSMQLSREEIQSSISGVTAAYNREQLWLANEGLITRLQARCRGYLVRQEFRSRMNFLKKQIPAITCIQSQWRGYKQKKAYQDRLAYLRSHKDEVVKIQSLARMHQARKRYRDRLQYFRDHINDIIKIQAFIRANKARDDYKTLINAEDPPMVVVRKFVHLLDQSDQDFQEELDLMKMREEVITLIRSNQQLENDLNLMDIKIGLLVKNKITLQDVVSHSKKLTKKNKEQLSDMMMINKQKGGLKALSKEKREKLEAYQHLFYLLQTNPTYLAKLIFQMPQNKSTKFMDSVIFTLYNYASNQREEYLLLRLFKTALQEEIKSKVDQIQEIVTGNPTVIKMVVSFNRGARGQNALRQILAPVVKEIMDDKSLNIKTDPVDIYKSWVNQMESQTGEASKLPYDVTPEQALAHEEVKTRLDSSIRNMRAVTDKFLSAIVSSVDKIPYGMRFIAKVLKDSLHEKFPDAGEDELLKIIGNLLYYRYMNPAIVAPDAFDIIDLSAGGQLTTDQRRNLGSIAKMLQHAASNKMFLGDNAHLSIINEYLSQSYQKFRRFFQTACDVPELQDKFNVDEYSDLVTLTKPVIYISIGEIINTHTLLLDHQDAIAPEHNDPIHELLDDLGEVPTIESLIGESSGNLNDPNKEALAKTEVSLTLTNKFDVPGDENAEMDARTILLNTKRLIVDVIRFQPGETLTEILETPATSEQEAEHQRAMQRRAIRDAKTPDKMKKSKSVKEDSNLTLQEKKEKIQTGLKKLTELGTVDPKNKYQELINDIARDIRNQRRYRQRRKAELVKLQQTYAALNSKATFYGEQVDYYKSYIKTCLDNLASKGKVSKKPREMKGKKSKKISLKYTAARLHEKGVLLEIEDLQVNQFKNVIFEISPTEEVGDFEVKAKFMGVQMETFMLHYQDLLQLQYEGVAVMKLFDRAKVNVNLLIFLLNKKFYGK
UniProt Q86VI3: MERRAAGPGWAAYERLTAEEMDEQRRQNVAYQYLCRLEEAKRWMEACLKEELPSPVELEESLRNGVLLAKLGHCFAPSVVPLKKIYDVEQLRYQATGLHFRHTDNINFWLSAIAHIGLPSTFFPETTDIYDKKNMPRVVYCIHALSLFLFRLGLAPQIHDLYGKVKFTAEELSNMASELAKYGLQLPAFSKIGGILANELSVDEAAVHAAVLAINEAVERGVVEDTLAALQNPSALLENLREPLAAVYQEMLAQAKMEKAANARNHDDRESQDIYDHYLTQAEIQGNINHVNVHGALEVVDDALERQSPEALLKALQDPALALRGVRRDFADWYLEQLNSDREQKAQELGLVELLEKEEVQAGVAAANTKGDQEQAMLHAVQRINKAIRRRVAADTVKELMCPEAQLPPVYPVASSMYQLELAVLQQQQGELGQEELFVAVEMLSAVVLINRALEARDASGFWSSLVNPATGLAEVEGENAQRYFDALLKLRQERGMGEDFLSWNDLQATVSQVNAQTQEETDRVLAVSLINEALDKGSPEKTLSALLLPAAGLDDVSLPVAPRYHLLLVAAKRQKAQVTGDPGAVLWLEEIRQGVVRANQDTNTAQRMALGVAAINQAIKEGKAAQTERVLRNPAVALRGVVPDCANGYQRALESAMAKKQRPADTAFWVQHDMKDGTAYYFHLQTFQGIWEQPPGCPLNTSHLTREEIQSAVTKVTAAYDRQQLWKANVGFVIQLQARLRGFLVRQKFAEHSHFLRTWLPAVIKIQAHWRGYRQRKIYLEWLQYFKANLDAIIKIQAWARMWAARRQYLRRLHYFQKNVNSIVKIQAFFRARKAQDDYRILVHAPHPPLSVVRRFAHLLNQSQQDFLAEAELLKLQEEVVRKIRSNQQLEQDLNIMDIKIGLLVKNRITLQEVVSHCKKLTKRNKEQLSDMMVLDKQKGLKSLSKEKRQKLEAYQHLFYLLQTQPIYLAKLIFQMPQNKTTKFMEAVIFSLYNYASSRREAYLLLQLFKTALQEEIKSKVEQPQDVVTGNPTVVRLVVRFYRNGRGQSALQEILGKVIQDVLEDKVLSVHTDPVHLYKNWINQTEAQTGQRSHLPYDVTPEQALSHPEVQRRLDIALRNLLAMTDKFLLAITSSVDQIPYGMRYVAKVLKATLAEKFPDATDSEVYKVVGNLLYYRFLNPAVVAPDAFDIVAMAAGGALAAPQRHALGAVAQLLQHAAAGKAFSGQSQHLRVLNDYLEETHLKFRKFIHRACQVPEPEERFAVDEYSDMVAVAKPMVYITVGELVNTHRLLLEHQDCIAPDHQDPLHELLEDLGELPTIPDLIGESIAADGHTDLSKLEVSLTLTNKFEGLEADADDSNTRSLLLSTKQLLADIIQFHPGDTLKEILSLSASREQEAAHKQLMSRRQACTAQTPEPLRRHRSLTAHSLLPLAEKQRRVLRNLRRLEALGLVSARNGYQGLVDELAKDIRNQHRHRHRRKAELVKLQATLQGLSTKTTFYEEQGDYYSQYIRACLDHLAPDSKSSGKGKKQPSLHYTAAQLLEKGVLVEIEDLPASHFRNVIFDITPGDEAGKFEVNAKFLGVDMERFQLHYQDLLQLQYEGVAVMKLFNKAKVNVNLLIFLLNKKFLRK
UniProt P10644: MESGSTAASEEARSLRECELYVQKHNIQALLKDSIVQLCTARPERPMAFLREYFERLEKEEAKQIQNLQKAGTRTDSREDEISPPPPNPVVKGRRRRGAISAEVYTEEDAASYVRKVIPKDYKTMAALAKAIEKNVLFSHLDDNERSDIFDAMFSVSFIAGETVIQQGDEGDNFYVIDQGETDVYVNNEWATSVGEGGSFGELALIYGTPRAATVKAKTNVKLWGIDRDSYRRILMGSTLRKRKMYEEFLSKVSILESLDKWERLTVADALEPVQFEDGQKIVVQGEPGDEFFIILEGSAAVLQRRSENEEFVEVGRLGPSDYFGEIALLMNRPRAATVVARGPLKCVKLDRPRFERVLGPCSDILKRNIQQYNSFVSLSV

Molecular target: human AKAP11-EGFP (human) (UniProt Q9UKA4)
Experiment: affinity purification with mass spectrometry

Row | Molecule | binding
1 | PKA R2-α (PRKAR2A) (from UniProt P13861 1-404) | binds
2 | vesicle-associated membrane protein-associated protein VAP-B (from UniProt O95292 1-243) | binds
3 | FAR1 (enzyme, UniProt Q8WVX9 1-515) MVSIPEYYEGKNVLLTGATGFLGKVLLEKLLRSCPKVNSVYVLVRQKAGQTPQERVEEVLSGKLFDRLRDENPDFREKIIAINSELTQPKLALSEEDKEVIIDSTNIIFHCAATVRFNENLRDAVQLNVIATRQLILLAQQMKNLEVFMHVSTAYAYCNRKHIDEVVYPPPVDPKKLIDSLEWMDDGLVNDITPKLIGDRPNTYIYTKALAEYVVQQEGAKLNVAIVRPSIVGASWKEPFPGWIDNFNGPSGLFIAAGKGILRTIRASNNALADLVPVDVVVNMSLAAAWYSGVNRPRNIMVYNCTTGSTNPFHWGEVEYHVISTFKRNPLEQAFRRPNVNLTSNHLLYHYWIAVSHKAPAFLYDIYLRMTGRSPRMMKTITRLHKAMVFLEYFTSNSWVWNTENVNMLMNQLNPEDKKTFNIDVRQLHWAEYIENYCLGTKKYVLNEEMSGLPAARKHLNKLRNIRYGFNTILVILIWRIFIARSQMARNIWYFVVSLCYKFLSYFRASSTMRY | binds
4 | ABCD3/PMP70 (protein, UniProt P28288 1-659) MAAFSKYLTARNSSLAGAAFLLLCLLHKRRRALGLHGKKSGKPPLQNNEKEGKKERAVVDKVFFSRLIQILKIMVPRTFCKETGYLVLIAVMLVSRTYCDVWMIQNGTLIESGIIGRSRKDFKRYLLNFIAAMPLISLVNNFLKYGLNELKLCFRVRLTKYLYEEYLQAFTYYKMGNLDNRIANPDQLLTQDVEKFCNSVVDLYSNLSKPFLDIVLYIFKLTSAIGAQGPASMMAYLVVSGLFLTRLRRPIGKMTITEQKYEGEYRYVNSRLITNSEEIAFYNGNKREKQTVHSVFRKLVEHLHNFILFRFSMGFIDSIIAKYLATVVGYLVVSRPFLDLSHPRHLKSTHSELLEDYYQSGRMLLRMSQALGRIVLAGREMTRLAGFTARITELMQVLKDLNHGKYERTMVSQQEKGIEGVQVIPLIPGAGEIIIADNIIKFDHVPLATPNGDVLIRDLNFEVRSGANVLICGPNGCGKSSLFRVLGELWPLFGGRLTKPERGKLFYVPQRPYMTLGTLRDQVIYPDGREDQKRKGISDLVLKEYLDNVQLGHILEREGGWDSVQDWMDVLSGGEKQRMAMARLFYHKPQFAILDECTSAVSVDVEGYIYSHCRKVGITLFTVSHRKSLWKHHEYYLHMDGRGNYEFKQITEDTVEFGS | binds
5 | ACOT8 (enzyme, UniProt O14734 1-319) MSSPQAPEDGQGCGDRGDPPGDLRSVLVTTVLNLEPLDEDLFRGRHYWVPAKRLFGGQIVGQALVAAAKSVSEDVHVHSLHCYFVRAGDPKLPVLYQVERTRTGSSFSVRSVKAVQHGKPIFICQASFQQAQPSPMQHQFSMPTVPPPEELLDCETLIDQYLRDPNLQKRYPLALNRIAAQEVPIEIKPVNPSPLSQLQRMEPKQMFWVRARGYIGEGDMKMHCCVAAYISDYAFLGTALLPHQWQHKVHFMVSLDHSMWFHAPFRADHWMLYECESPWAGGSRGLVHGRLWRQDGVLAVTCAQEGVIRVKPQVSESKL | binds

Further lines, results first:

Row | binding | Molecule
6 | binds | E3 ligase HUWE1 (from UniProt Q7Z6Z7 1-4374) (enzyme)
7 | binds | IQGAP1 (from UniProt P46940 1-1657)
8 | binds | IQGAP3 (from UniProt Q86VI3 1-1631)
9 | binds | PKA R1-α (PRKAR1A) (from UniProt P10644 1-381)

These are yes or no findings as the source states them, for the method shown. Binding seen in cells or lysates may run through a third protein. A yes stands for co-enrichment or nearness to the bait. Other partners may have been found.
